The inconclusive results got no clear call from the source; some entries with a clear call stand among them for comparison. Activity calls are given as the source filed them.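 Rule for the calls: active = compound lowering the signal whose fitted half-maximal concentration is at most ten times its top tested dose; inconclusive = flat curve with 30 to 70% loss, or poor fit; inactive = the rest.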
assay: viability loss in Mcl1-dependent HMC-1-8 cells, dose response, selectivity assay for A1 inhibitor project, cell-based, luminescence, dry powder (AID 504415); conditions: HMC-1-8 (Mcl1-dependent) viability, Glo luminescence, 24 h; at 35 µM (top of the series)

Row | Structure (SMILES) | activity change, negative = viability loss
1 | Cn1c(=O)c([N+](=O)[O-])c(Oc2ccccc2)c2ccccc21 | inactive: 12.5%
2 | O=c1oc2ccccc2c(N2CCCCC2)c1[N+](=O)[O-] | inconclusive: 0.701%
3 | O=c1oc2ccccc2c(Cl)c1[N+](=O)[O-] | inactive: 23.9%
4 | Cn1c(=O)c([N+](=O)[O-])c(Cl)c2ccccc21 | inconclusive: -37.2%
5 | Cc1ccc(Nc2c([N+](=O)[O-])c(=O)oc3ccccc23)cc1 | inactive: 10.5%
6 | CCOC(=O)N1CCN(c2c([N+](=O)[O-])c(=O)n(C)c3ccccc23)CC1 | inactive: 8.34%
7 | CN1C(=O)C(C)(C)N(Cc2ccccc2)c2ccccc21 | inconclusive: 1.24%
8 | CCOCCCNc1c([N+](=O)[O-])c(=O)n(C)c2ccccc12 | inconclusive: 27%
9 | Cc1ccc(Sc2cc(=O)n(C)c3ccccc23)cc1 | inconclusive: -6.79%

Source: PubChem BioAssay AID504415 (Broad Institute, 2011)
